# PubChem BioAssay AID1259254, NCATS, 2017
# Screen: 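Finding genes that stop cells copying their DNA twice in one cycle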 (primary screen)
# Cell system: human HCT116 colorectal cancer cells
# Knock-down reagent: single siRNA against human genes
# Duration: 3 days
# Detection: 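Nuclei stained with Hoechst and imaged; cell-cycle phase assigned by DNA content; G2 share scaled per plate, non-targeting siRNA 0%, GMNN siRNA 100%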
# Reading the numbers: G2 robust z-score and G2 cells, % of GMNN control: higher = more G2 cells, more excess DNA replication; raw share of cells in G2: higher = larger share of cells with G2 DNA content
# Call rule: 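An siRNA counts as active if its G2 robust z-score lies at least 5 MADs above the screen median; here such calls match roughly 38% of GMNN control or more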
# The deposit covers about 59,000 reagents; this is an unselected part. About 1,550 of all reagents (2.6%) count as active. 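G2 share is only a proxy for re-replication; each gene was hit by three separate siRNAs, and active genes were retested.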 Raw values are not corrected between plates. Unmarked entries are inactive. The numbers tell different reagents against one gene apart. The record does not give: the amount of reagent.
gene knocked down,reagent,G2 robust z-score,"G2 cells, % of GMNN control",raw share of cells in G2 (%)
TRIM71,1,0.02,3.11,5.35
TRIM71,2,0.228,4.57,4.55
TRIM71,3,0.784,8.49,5.66
TGM5,1,-1.29,-6.13,2.51
TGM5,2,-0.59,-1.18,4.85
TGM5,3,-0.483,-0.434,4.34
MYL6B,1,-1.31,-6.28,2.06
MYL6B,2,-0.476,-0.38,4.56
MYL6B,3,-0.822,-2.81,4.61
SKI,1,0.199,4.37,5.19
SKI,2,-0.142,1.97,5.77
SKI,3,-0.959,-3.78,1.74
TSPAN3,1,-0.288,0.94,5.76
TSPAN3,2,-0.269,1.07,4.39
TSPAN3,3,-0.294,0.896,3.73
POU1F1,1,1.52,13.7,8.88
POU1F1,2,0.807,8.64,8.89
POU1F1,3,0.716,8,6.01
TXNDC8,1,1.13,10.9,11.2
TXNDC8,2,-0.209,1.5,5.25
TXNDC8,3,-0.533,-0.784,4.37
SLC25A42,1,-1.08,-4.66,2.58
SLC25A42,2,-0.758,-2.36,4.04
SLC25A42,3,-0.381,0.289,6.03
LRRC78P,1,1.15,11.1,7.95
LRRC78P,2,1.26,11.8,7.61
LRRC78P,3,0.926,9.48,6.05
LRRC49,1,-0.571,-1.05,3.23
LRRC49,2,0.552,6.85,7.16
LRRC49,3,0.841,8.89,6.13
CLIC1,1,-0.567,-1.02,3.98
CLIC1,2,-1.37,-6.69,2.85
CLIC1,3,-0.998,-4.05,3.41
MBD3L2,1,-0.405,0.118,2.62
MBD3L2,2,-0.513,-0.644,3.93
MBD3L2,3,-0.522,-0.707,2.88
SNRPA,1,-0.963,-3.81,2.7
SNRPA,2,0.312,5.16,7.42
SNRPA,3,0.402,5.79,6.53
CLCN1,1,0.913,9.39,8.71
CLCN1,2,-0.728,-2.15,4.05
CLCN1,3,-1.14,-5.07,2.4
TOMM34,1,-1.09,-4.67,3.66
TOMM34,2,5.03 (active),38.4,16.2
TOMM34,3,-0.763,-2.4,5.53
DNAJC27,1,-0.165,1.81,6.77
DNAJC27,2,-0.737,-2.22,2.95
DNAJC27,3,0.088,3.59,5.57
FKBP9P1,1,0.479,6.34,7.43
FKBP9P1,2,-0.269,1.07,6.37
FKBP9P1,3,0.851,8.96,7.55
PCDHB4,1,0.242,4.67,6.28
PCDHB4,2,-0.523,-0.712,4.18
PCDHB4,3,-1.12,-4.88,4.29
PSMC3IP,1,-1.12,-4.9,2.56
PSMC3IP,2,3.06,24.5,17.3
PSMC3IP,3,-0.819,-2.79,3.08
TXNDC2,1,-0.508,-0.608,3.97
TXNDC2,2,2.8,22.7,13.2
TXNDC2,3,6.63 (active),49.6,26.1
PSG11,1,-0.865,-3.12,3.65
PSG11,2,-0.0295,2.76,5.31
PSG11,3,0.812,8.68,6.49
A3GALT2,1,-0.789,-2.58,2.28
A3GALT2,2,-0.523,-0.709,2.32
A3GALT2,3,-0.178,1.71,4.82
YIPF4,1,0.862,9.03,7.11
YIPF4,2,-0.354,0.477,3.6
YIPF4,3,-0.203,1.54,2.87

No new results follow: 11 of the entries above.
gene knocked down,reagent,G2 robust z-score,"G2 cells, % of GMNN control",raw share of cells in G2 (%)
CLCN1,2,-0.728,-2.15,4.05
CLCN1,3,-1.14,-5.07,2.4
TOMM34,1,-1.09,-4.67,3.66
TOMM34,2,5.03 (active),38.4,16.2
TOMM34,3,-0.763,-2.4,5.53
DNAJC27,1,-0.165,1.81,6.77
DNAJC27,2,-0.737,-2.22,2.95
DNAJC27,3,0.088,3.59,5.57
FKBP9P1,1,0.479,6.34,7.43
FKBP9P1,2,-0.269,1.07,6.37
FKBP9P1,3,0.851,8.96,7.55
